This is an account of results in PMC4180847.

Protein sequences, listed by entry. Tags and fused reporters are not part of them. Lines headed by an entry give the natural chain unless they say otherwise; changes in a name come on top.
UniProt Q00987: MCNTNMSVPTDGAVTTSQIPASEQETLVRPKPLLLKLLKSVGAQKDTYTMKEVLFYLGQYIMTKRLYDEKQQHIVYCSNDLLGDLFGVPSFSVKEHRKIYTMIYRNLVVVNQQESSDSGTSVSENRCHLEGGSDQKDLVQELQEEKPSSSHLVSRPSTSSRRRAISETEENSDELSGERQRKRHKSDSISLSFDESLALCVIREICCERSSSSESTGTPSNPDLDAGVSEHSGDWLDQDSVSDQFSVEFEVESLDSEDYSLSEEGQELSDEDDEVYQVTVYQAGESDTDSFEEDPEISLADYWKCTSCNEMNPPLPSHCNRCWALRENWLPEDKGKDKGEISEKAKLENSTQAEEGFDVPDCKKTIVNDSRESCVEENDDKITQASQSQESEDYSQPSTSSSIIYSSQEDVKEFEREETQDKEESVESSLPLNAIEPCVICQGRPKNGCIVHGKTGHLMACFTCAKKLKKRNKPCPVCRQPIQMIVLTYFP

Results are given in words; binding and its absence hold for the method and conditions named. Binding seen in cells or lysates may run through a third protein. Some results given as binding are weak or reduced against the parent protein; the word gives no strength.

In assay [1] the target is T1, nucleostemin (human (endogenous in 10AT-Her2, SKBR3, MCF-7, MDA-MB-231)) (UniProt Q9BVP2).
T1 sequence: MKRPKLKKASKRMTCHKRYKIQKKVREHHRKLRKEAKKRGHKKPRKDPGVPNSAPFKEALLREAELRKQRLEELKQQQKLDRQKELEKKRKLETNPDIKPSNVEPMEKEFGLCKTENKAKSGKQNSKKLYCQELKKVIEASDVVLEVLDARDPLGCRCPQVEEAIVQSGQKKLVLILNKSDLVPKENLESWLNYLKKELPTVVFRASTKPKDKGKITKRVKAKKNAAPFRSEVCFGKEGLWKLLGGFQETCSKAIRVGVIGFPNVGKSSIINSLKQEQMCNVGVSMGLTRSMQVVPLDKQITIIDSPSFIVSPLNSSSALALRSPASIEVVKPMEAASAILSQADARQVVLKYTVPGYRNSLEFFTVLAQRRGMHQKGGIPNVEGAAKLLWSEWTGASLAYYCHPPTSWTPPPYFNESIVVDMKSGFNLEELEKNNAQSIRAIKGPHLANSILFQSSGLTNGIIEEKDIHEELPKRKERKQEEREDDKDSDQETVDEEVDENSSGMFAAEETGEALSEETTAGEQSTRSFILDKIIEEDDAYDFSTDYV
Briefly: co-IP; total extracts of 10AT-Her2 cells treated with or without 200 μM I3C for 48 hours (also cells transfected with EV, WT or Δ205 elastase vectors), immunoprecipitated with nucleostemin antibodies; Western blot for serine-166 phosphorylated MDM2 or total MDM2. For orientation: In western blotting, separated proteins are transferred to a membrane and probed.

The target in assay [2] is T1, nucleostemin (human (endogenous in 10AT-Her2, SKBR3, MCF-7, MDA-MB-231)). Briefly: co-IP; total extracts of SKBR3 cells treated with or without 200 μM I3C for 48 hours, immunoprecipitated with nucleostemin antibodies; Western blot for serine-166 phosphorylated MDM2 or total MDM2.

Turning to “serine-166 (Ser166) phosphorylated MDM2 (from UniProt Q00987 1-491)”, the binding result in assay [1] is “binds”.
“MDM2 (murine double mutant 2) (from UniProt Q00987 1-491)”: the binding entry in assay [2] and in assay [1] was “binds” each time.
